# Assay results from the supplement of paper PMC12823440, “Inhibitors supercharge kinase turnover through native proteolytic circuits” (Nature, 2025).
# Counter-ions that a name gives are not always drawn. This is one part of the list. The calls rarely recur for the same compound in another form.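 In K562 cells expressing nanoluciferase-fused kinases, luminescence was recorded at 4 h intervals between 2 and 18 h, normalized as percent of control with DMSO at 100% and a positive control at 0%. A significant (2 sigma) signal drop marks a time point as decreased. The authors' rule for a hit is not shown and takes in more than the number of time points.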
# Biological target: RAF1 (UniProt P04049)
# Assay: kinase-Nluc reporter destabilization hit call (1 = scored as downregulated) (binary); higher = compound decreases kinase abundance
# Conditions: K562; 2-18 h
row,Structure (SMILES),kinase-Nluc reporter destabilization hit call
1,CCS(=O)(=O)c1ncc(Cl)c(C(=O)N(Cc2ccc(Cl)cc2)Cc2ccco2)n1 (2.5 µM),inactive: 0
2,Nc1cc(C(F)(F)F)c(-c2cc(N3CCOCC3)nc(N3CCOCC3)n2)cn1 [Buparlisib (Hydrochloride)] (2.5 µM),inactive: 0
3,COc1cc(Nc2ncc(F)c(Nc3ccc4c(n3)N(COP(=O)(O)O)C(=O)C(C)(C)O4)n2)cc(OC)c1OC [Fostamatinib Disodium] (10 µM),inactive: 0
4,CC(C)(O)CNc1ncc(-c2ccnc(Nc3ccnc(Cl)c3)n2)c(CC2CC2)n1 (2.5 µM),inactive: 0
5,O=Nc1c(-c2c(O)[nH]c3ccc(I)cc23)[nH]c2ccccc12 [5-Iodo-indirubin-3'-monoxime] (10 µM),inactive: 0
6,Cc1cc(Nc2ncnc3ccc(NC4=NC(C)(C)CO4)cc23)ccc1Oc1ccn2ncnc2c1 [Tucatinib] (2.5 µM),inactive: 0
7,CCS(=O)(=O)Nc1ccc2[nH]c(O)c(C(=Nc3ccc(CN4CCCCC4)cc3)c3ccccc3)c2c1 [Hesperadin] (2.5 µM),inactive: 0
8,COc1cc2c(cc1OC)CN(S(=O)(=O)c1ccc(OC)c(N3CCN(C(=O)c4ccc(F)cc4C(F)(F)F)CC3)c1)CC2 (10 µM),inactive: 0
9,O=C([O-])c1cc2ccccc2c(Cc2c(O)c(C(=O)[O-])cc3ccccc23)c1O.[Na+].[Na+] [Pamoic acid (disodium)] (10 µM),inactive: 0
10,Cn1cc(-c2ccc3nnc(Sc4ccc5ncccc5c4)n3n2)cn1 (10 µM),inactive: 0
11,Cc1cc(O)c2c(c1)C(=O)c1cc(O)cc(O)c1C2=O [Emodin] (10 µM),inactive: 0
12,COc1cc2c(N3CCN(C(=O)Nc4ccc(OC(C)C)cc4)CC3)ncnc2cc1OCCCN1CCCCC1 [Tandutinib (hydrochloride)] (10 µM),inactive: 0
13,CCC(C)N1c2ccccc2C(=O)N(C)c2cnc(Nc3ccc(C(=O)N4CCC(N5CCN(C)CC5)CC4)cc3OC)nc21 (stereo unspecified) (2.5 µM),inactive: 0
14,COc1cc(Nc2ncc(F)c(Nc3ccc4c(n3)NC(=O)C(C)(C)O4)n2)cc(OC)c1OC (10 µM),inactive: 0
15,NS(=O)(=O)c1ccc(-n2nc(C(F)(F)F)cc2-c2ccc(Cl)cc2)cc1 (10 µM),inactive: 0
16,Cc1c(NC(=O)c2cccn(-c3ccc(F)cc3)c2=O)ccc(Oc2ccnc(NC(=O)C3CC3)c2)c1C (2 µM),inactive: 0

row,Structure (SMILES),kinase-Nluc reporter destabilization hit call
1,c1ccc(-c2[nH]ncc2-c2ccnc3ccccc23)nc1 (10 µM),inactive: 0
2,CN(C)CCCOc1ccc(-c2ccc3ncc4c(c3c2)n(C2CCOCC2)c(=O)n4C)cn1 (2 µM),inactive: 0
3,COc1cc(Nc2ncc(F)c(Nc3ccc4c(n3)NC(=O)C(C)(C)O4)n2)cc(OC)c1OC [R406 (free base)] (10 µM),inactive: 0
4,OCCn1cc(-c2ccc3c(c2)CC/C3=N\O)c(-c2ccncc2)n1 (10 µM),inactive: 0
5,C[C@@H]1CCN(C(=O)CC#N)C[C@@H]1N(C)c1ncnc2[nH]ccc12 [Tofacitinib] (10 µM),inactive: 0
6,C[C@@H]1CCN(C(=O)CC#N)C[C@@H]1N(C)c1ncnc2[nH]ccc12 [Tofacitinib (citrate)] (10 µM),inactive: 0
7,FC(F)(c1ccc2ncccc2c1)c1nnc2ccc(-c3ccncc3)nn12 (10 µM),inactive: 0
8,O=C1NC(=O)/C(=C\c2cccc(C(F)(F)F)c2)S1 (2.5 µM),inactive: 0
9,N#CCC1CCN(c2nc(Nc3ccc(N4CCC(O)CC4)cc3)c3c(=O)[nH]ncc3n2)CC1 [Gusacitinib] (10 µM),inactive: 0
10,Nc1ncnc2c1c(-c1cccc(OCc3ccccc3)c1)cn2C1CC(CN2CCC2)C1 (stereo unspecified) (2.5 µM),inactive: 0
11,CCNc1nc(Nc2cc(F)c(C(=O)N3CCOCC3)cc2OC)ncc1C(F)(F)F [GNE-7915 (tosylate)] (10 µM),inactive: 0
12,Cn1cnc2c(F)c(Nc3ccc(Br)cc3Cl)c(C(=O)NOCCO)cc21 [Selumetinib] (10 µM),inactive: 0
13,CCN1CCN(Cc2ccc(-c3cc4c(N[C@H](C)c5ccccc5)ncnc4[nH]3)cc2)CC1 (2.5 µM),inactive: 0
14,O=C(N/N=C/c1coc2ccccc2c1=O)c1cccnc1 (10 µM),inactive: 0
15,O=Nc1c(-c2c(O)[nH]c3ccc(F)cc23)[nH]c2ccccc12 [5'-Fluoroindirubinoxime] (10 µM),inactive: 0

# Random excerpt: two entries already listed, in no set order.
row,Structure (SMILES),kinase-Nluc reporter destabilization hit call
8,O=C1NC(=O)/C(=C\c2cccc(C(F)(F)F)c2)S1 (2.5 µM),inactive: 0
11,CCNc1nc(Nc2cc(F)c(C(=O)N3CCOCC3)cc2OC)ncc1C(F)(F)F [GNE-7915 (tosylate)] (10 µM),inactive: 0
